We go through three substances from article doi:10.1101/2025.08.28.672664.

By UniProt entry, the sequences of proteins in these tests, tags left out.
UniProt F4I3M3: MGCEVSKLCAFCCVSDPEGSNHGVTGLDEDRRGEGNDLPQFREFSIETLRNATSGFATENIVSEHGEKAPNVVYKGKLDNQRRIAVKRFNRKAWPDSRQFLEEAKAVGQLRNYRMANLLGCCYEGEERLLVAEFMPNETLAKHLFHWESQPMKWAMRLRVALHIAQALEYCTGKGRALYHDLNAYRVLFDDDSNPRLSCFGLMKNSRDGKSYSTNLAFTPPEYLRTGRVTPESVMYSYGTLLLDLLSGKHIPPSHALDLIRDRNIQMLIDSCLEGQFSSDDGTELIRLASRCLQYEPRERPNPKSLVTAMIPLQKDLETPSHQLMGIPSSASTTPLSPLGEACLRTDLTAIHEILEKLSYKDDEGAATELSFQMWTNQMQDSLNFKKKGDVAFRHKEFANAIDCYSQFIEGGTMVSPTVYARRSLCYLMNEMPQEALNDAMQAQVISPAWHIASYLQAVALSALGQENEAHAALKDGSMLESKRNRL
UniProt Q9FHD7: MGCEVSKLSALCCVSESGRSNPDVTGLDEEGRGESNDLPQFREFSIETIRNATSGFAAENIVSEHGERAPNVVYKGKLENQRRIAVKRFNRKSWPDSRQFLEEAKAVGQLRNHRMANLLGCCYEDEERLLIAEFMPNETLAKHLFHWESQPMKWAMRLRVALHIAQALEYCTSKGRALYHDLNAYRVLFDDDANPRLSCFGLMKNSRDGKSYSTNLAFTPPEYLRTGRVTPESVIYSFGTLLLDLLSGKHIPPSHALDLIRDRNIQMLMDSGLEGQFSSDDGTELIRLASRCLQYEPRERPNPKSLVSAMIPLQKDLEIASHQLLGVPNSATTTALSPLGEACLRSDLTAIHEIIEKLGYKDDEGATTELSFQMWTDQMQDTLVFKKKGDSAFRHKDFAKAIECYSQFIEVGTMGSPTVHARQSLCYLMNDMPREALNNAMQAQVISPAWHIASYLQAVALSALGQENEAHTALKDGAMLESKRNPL

Like-named read-outs stand apart in the source and are kept apart here. Results are given in words; binding and its absence hold for the method and conditions named. Some entries that bind do so weakly or less than the wild type.

Test in all cases: two-hybrid
The target of test [1] is At-BSK7, yeast hybrid fusion (A. thaliana) (UniProt F4I3M3).
The target in test [2] is At-BSK8, yeast hybrid fusion (A. thaliana) (UniProt Q9FHD7).
Test [3] deals with At-BSK7, yeast hybrid fusion (A. thaliana) (UniProt F4I3M3). This is another data set of the same source.
Test [4] concerns the target At-BSK8, yeast hybrid fusion (A. thaliana) (UniProt Q9FHD7). This is another data set of the same source.

As for “At-BSK7, yeast hybrid fusion (from UniProt F4I3M3 1-487)”, the binding entry in test [1] is “binds”.
Take “At-BSK8, yeast hybrid fusion (from UniProt Q9FHD7 1-487)”: the binding result in test [1] and in test [2] was “binds” in each case.
Take “At-FLS2_CD^D997A, catalytically inactive cytoplasmic domain of At-FLS2, yeast hybrid prey (from UniProt Q9FL28 828-1173) (domain or fragment)”: the binding entry in test [3], in test [4] and in test [1] was “binds” throughout.
